Results: PMC4600748
These are yes or no findings as the source states them, for the method shown. Binding seen in cells or lysates may run through a third protein. A result given as binding can be weak or reduced; the word gives no strength. For some assays here: Tags and fused reporters may be left off the sequences shown. One block for each binder: values may come before it.

Amino acid sequences for entries named in this document (tags omitted). A change or cut given only in a name is not applied to a line headed by its entry.
UniProt Q00657: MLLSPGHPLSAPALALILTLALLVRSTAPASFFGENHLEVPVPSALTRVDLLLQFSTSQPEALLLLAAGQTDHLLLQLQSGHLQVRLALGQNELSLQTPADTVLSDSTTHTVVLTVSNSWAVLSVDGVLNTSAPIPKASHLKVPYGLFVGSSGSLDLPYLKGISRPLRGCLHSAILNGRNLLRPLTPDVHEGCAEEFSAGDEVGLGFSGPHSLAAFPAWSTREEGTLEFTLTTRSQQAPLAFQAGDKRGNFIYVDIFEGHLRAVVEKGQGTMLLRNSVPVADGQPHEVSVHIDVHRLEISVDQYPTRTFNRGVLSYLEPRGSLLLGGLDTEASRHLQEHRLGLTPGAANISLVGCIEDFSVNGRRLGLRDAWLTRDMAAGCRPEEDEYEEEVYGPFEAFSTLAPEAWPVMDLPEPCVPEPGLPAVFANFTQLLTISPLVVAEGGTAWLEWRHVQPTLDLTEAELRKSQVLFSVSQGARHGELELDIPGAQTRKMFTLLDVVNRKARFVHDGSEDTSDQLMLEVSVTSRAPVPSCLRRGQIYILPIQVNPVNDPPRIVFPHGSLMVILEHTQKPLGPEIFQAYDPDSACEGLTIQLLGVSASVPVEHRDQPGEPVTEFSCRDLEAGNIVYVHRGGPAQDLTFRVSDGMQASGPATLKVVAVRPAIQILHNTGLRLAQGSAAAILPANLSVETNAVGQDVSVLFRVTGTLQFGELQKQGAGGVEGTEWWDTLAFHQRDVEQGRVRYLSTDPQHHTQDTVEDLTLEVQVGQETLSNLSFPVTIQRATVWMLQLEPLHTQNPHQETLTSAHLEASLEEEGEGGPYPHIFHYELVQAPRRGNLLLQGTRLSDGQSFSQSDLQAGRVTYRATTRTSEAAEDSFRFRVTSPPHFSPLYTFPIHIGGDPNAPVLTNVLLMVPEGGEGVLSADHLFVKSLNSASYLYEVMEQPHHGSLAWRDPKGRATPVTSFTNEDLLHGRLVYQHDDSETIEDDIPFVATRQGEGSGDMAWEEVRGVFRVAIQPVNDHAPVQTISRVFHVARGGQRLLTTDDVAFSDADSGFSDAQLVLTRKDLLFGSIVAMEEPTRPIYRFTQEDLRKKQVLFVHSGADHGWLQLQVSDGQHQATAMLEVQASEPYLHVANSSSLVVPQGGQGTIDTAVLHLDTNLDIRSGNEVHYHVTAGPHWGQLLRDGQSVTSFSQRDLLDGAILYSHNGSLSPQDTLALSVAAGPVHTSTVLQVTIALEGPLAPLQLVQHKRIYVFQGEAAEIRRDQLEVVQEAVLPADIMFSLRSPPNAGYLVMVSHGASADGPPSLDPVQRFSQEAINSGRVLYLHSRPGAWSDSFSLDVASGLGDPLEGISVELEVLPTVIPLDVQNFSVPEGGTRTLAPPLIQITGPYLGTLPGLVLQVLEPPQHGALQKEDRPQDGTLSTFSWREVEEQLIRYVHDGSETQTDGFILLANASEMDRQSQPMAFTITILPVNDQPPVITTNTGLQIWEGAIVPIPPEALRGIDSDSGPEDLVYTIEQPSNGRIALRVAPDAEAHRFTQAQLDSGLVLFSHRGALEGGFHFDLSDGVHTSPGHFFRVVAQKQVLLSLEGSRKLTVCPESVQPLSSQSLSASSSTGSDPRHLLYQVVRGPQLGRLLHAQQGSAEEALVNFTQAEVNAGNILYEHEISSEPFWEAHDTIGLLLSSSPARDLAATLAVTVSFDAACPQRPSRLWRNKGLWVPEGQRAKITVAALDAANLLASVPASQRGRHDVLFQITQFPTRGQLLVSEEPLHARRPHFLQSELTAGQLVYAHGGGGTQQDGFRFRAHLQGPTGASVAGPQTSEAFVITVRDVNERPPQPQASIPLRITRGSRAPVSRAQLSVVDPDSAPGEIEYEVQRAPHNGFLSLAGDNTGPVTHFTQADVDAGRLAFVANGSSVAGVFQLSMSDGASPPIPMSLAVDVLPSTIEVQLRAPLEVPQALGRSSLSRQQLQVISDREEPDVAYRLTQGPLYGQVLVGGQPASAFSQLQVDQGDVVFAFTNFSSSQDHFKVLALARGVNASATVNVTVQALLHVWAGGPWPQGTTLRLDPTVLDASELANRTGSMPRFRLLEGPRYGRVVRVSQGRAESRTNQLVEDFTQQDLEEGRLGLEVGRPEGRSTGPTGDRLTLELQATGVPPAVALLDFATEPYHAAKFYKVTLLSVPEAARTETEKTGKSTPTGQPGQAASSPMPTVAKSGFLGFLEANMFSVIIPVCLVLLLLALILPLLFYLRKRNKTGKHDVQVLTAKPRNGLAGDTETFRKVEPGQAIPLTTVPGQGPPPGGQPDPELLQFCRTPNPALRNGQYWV

Key:
[1] = target: GST-tagged NG2-cytosolic-tail (UniProt Q00657); assay: pull-down; bead-coupled GST-NG2-cytosolic-tail incubated with lysates from WT and Stonin1-/- mouse lungs, 2 h at 4 °C; immunoblot with Stonin1 antibodies; only the target purified
[2] = target: GST-tagged NG2-cytosolic-tail (UniProt Q00657); assay: pull-down; bead-coupled GST-NG2-cytosolic-tail variants incubated with lysates of HEK293T cells overexpressing HA-Stonin1-μHD, 2 h at 4 °C; 50 mM Tris pH 8, 150 mM NaCl, 1% IGEPAL; immunoblot with HA antibodies; only the target purified

binding [1]: binds
B1: Stonin1, endogenous (mouse lung) (protein, UniProt Q8CDJ8 1-730)
chain: MYSTNPGSWVTFDDDPAFQSSQKRKDFSLETQGVCRPNGLKLTLPTLRDPPSTPSSASSTPLSSPMVDFYFSPGPPSNSPLSTPTKDFPGFPGIPKAGTHVLYPIPECSSSSAPTTAGGVGPPLLLTKPDCSPHVSLPSSHSHTQPTPTLGFTEDAGPQRVQSEARQFEYFQDHCAFSNPFWKDEGSASPFPLDSLASRKPFSPKDKEVPIGHKSLTQCSLDYICEKLEHLHSAETQDPLGDLSMQDPYAGDTVSFVPHSLFRSQPRAGWSFMLRIPEKKNMMSSRQWGPIFLKVLPGGILQMYYEKGLEKPFKEFQLDPHCRLSEPKLENFSMAGKIHTVKVEHVSYSEKRKYHAKTEVVHEPEVEQMLKLGSTEHRDFLEFLTTVEEELIKLPATAKPKNKSYEEQEICLDIQDSLWGKVTKEGQLVESAVVTQICCLCFLNGPAECFLALNDRELQKRDECYFEKEPEKKGIAILDYHFHTCVKAEEFEQSRIIKFVPLDACRFELMRFKTSYEAGELPFAVKSVVTVQGAYVELQAFVNMTPAAQGSPHAGALRSCNNIMIHFPVPAQWIKALWTRNLQRQKSLKAKMNRRACLGSLQEPESEPVIQVTVGSAKYESAYRAVVWKIDRLPDKNSSPDQPHCLSYKLELGSDQEVPSDWYPFATVQFSMLEACASRTEVRSLGVESDAQPQKHVCQRACYNIQVEIEKKWIQVDGEDADKTGGCVTQ

binding [2]: binds
B2: HA-tagged Stonin1-μHD (Stonin1-405-730) (domain or fragment, UniProt Q8CDJ8 405-730)
chain: YEEQEICLDIQDSLWGKVTKEGQLVESAVVTQICCLCFLNGPAECFLALNDRELQKRDECYFEKEPEKKGIAILDYHFHTCVKAEEFEQSRIIKFVPLDACRFELMRFKTSYEAGELPFAVKSVVTVQGAYVELQAFVNMTPAAQGSPHAGALRSCNNIMIHFPVPAQWIKALWTRNLQRQKSLKAKMNRRACLGSLQEPESEPVIQVTVGSAKYESAYRAVVWKIDRLPDKNSSPDQPHCLSYKLELGSDQEVPSDWYPFATVQFSMLEACASRTEVRSLGVESDAQPQKHVCQRACYNIQVEIEKKWIQVDGEDADKTGGCVTQ
